Results from patent publication US20240336679A1, “METHODS FOR THE TREATMENT OF CANCER” (INSTITUT REGIONAL DU CANCER DE MONTPELLIER, priority 2021, published 2024).
Structures can show the parent of a compound that is named as a salt. At least one compound was matched to its structure with a doubt left.

Test system: PHGDH, PSAT1 and PSPH mRNA in C2C12 myoblasts cocultured with IB115 liposarcoma cells
Assay: Anti-IL-6 assay: RT-qPCR of serine synthesis genes in C2C12 myoblasts cocultured with IB115 cells treated with IL-6 signaling inhibitors
Assay type: cell-based, mouse
Details: FIG. 11, 100 nM
Protocol: Total mRNAs were isolated from myoblasts (C2C12 cells) using TRIzol Reagent (Invitrogen) as previously described (Riscal et al. Mol Cell. 2016 Jun. 16; 62 (6): 890-902). Afterwards, Reverse Transcription of 1 μg mRNA into cDNA was performed using SuperScript III Reverse Transcriptase (Invitrogen), according to the manufacturer protocol. Quantification of the produced cDNA was achieve by Real-time quantitative PCRs on a LightCycler 480 SW 1.5 apparatus (Roche) using SYBR Green mix (Ozyme) plus the oligonucleotides of interest, and the following amplification protocol: 45 cycles of 95° C. for 4 s, 60° C. for 10 s, and 72° C. for 15 s. Analysis of the relative gene expression (mRNA copy number) was realized using Ct values and the 2^−ΔCt method, normalized on at least two different housekeeping genes (TBP, Tubuline, RPL13a, Gus B, β-microglobuline).
Relative quantities of mRNA of MDM2 direct target genes PHGDH, PSAT1 and PSPH were determined by RT-qPCR in C2C12 cells culture alone or in coculture with IB115 cells treated or not with a blocking anti-IL-6 antibody (Wijdenes et al., Mol Immunol, 28 (1991), p. 1183),i.e., IL-6 receptor inhibitor such as Bazedoxifène, or STAT3 inhibitors such as C188-9 and Stattic (mean+/−SD; n=3 independent experiments). Statistical significance was evaluated using non-parametric Mann-Whitney U tests.

## Cc1c(-c2ccc(O)cc2)n(Cc2ccc(OCCN3CCCCCC3)cc2)c2ccc(O)cc12 [BZA, 1-[[4-[2-(Hexahydro-1H-azepin-1-yl)ethoxy]phenyl]methyl]-2-(4-hydroxyphenyl)-3-methyl-1H-indol-5-ol monoacetate (salt)]
  IL-6 dependent enhancement of the serine synthesis way (PHGDH, PSAT, PSPH mRNA): decreases
